According to US20200239938A1 (priority 2017, published 2020):
For at least one compound, name, drawing or mass did not settle the structure.

Legend:
Assay type in all cases: cell-based
[1] = test system: Salmonella enterica subsp. enterica DSM-5569; test: drop plate enumeration of viable cells on tryptic soy agar
Excerpt: (§1) The pathogens of interest Salmonella enterica subsp. enterica and Campylobacter jejuni were cultivated in microtiter plate scale in order to enable the simultaneous application of four different starting culture concentrations and treatments (Table 3). For analysis, samples for DNA extraction were taken after different times of cultivation and applied for qPCR enumeration of Salmonella enterica subsp. enterica and Campylobacter jejuni specific genes. As the qPCR assay is designed to record both viable and non-viable cells, an additional viability check was performed for AB treated cultures and the untreated controls.
In order to evaluate the effect of bactericidic effect Kanamycin, drop plate tests were performed to determine the number of viable cells. Three dilutions of a ten-fold series of the high (dilutions 10^−3, 10^−4 and 10^−5) and low (dilutions 10′, 10^−2 and 10^−3) inoculated culture after 0 and 6 h were plated in triplicates on CBA (Campylobacter) or tryptic soy agar (TSA) (Salmonella) by dropping 10 μl on the agar. The plates were evaluated regarding growth at the distinct log dilutions after 24 h incubation (41° C. microaerophilic for Campylobacter, 37° C. aerobic for Salmonella).

[2] = test system: Salmonella enterica subsp. enterica DSM-5569; test: microtiter plate cultivation assay with qPCR enumeration of the hilA target gene (growth curves, growth rate)
Excerpt: as §1
For Salmonella enterica subsp. enterica experiments, the DSMZ strain DSM-5569 was used. The inoculum culture was produced by an overnight cultivation in lysogeny broth+glucose (LBG) at 37° C. under aerobic conditions.
The actual assay was carried out in microtiter plate format containing a total volume of 200 μl. Following media for the different treatment conditions were prepared according to Table 4. […]
(§2) For each intervention and for the untreated control, following inoculum concentrations given in starting quantity of the Salmonella enterica subsp. enterica and Campylobacter jejuni specific target gene per ml culture were applied for the start of the assay: […]
(§3) For enumeration of Salmonella or Campylobacter, primers and probes binding in conserved genetic regions, specific for each species were applied in qPCR assays with a total volume of 30 μl and a DNA eluate volume of 10 μl. […] Absolute quantification of targets was performed under consolidation of standard curves that were carried with each run. Using the standard curves, the starting quantity (SQ) of the specific target was calculated for each sample. […]
To outline the effect of each treatment, the difference of growth rates between untreated and treated cultures was calculated for each starting inoculum concentration as following: […]

[3] = test system: Campylobacter jejuni DSM-24306; test: microtiter plate cultivation assay with qPCR enumeration of the Cj0414 target gene (growth curves, growth rate); details: all inoculum concentrations; MH medium, 41° C. microaerophilic; Butyrate 25 mM, GutCare (cell-free) 10% (v/v), Kanamycin 50 μl/ml; 0-48 h
Excerpt: as §1
For Campylobacter jejuni experiments the DSMZ strain DSM-24306 was applied. […]
as §2
as §3, with “run.” for “run. Using the standard curves, the starting quantity (SQ) of the specific target was calculated for each sample.”

NC[C@H]1O[C@H](O[C@H]2[C@H](O)[C@@H](O[C@H]3O[C@H](CO)[C@@H](O)[C@H](N)[C@H]3O)[C@H](N)C[C@@H]2N)[C@H](O)[C@@H](O)[C@@H]1O [Kanamycin]
effect of Kanamycin on S. enterica (agar drop assay) ([1]; Kanamycin 50 μl/ml): not only inhibitory but also bactericidal effect | growth of viable cells after 6 h of incubation in presence of Kanamycin ([1]; high and low concentrated inoculum, 6 h): no growth is detected | growth curve (target starting quantity (SQ) per ml culture, qPCR) ([2]; all inoculum concentrations, LBG, 37° C. aerobic, Butyrate 25 mM, Ecobiol 10% (v/v), 0-30 h): clear growth inhibition | growth rate ([2]; cultivation period of 0 to 7 h, very high to low inoculum, Butyrate 25 mM, Ecobiol 10% (v/v), Kanamycin 50 μl/ml): negative rates | starting quantity of the target gene compared with cell-containing Ecobiol ([2]; full period of cultivation, all inoculum densities, Kanamycin 50 μl/ml): over-all lower starting quantity of the target gene | growth curve (target starting quantity (SQ) per ml culture, qPCR) [3]: inhibition of growth after a weak increasement of SQ during the first 7 h
